Some entries share one result that the patent states for a list of compounds.
Test system: αhFR
Test: Immunoprecipitation of newly synthesized (35S-methionine labeled) αhFR protein in KB cells
Assay type: cell-based, human
Conditions: KB cells incubated with 50 μM unmodified oligonucleotide, 16 hrs; compared to sense oligonucleotide controls

## AS-1: antisense 21-mer DNA TGTTGTCATCCGCTGAGCCAT, αhFR open reading frame 21–1, SEQ ID NO. 2 (antisense TGTTGTCATCCGCTGAGCCAT; unmodified DNA)
  reduction of levels of newly synthesized αhFR: ≤ 60%

## AS-2: antisense 21-mer DNA AGGAGGTCAGCTGAGCAGCCA, αhFR open reading frame 780–760, SEQ ID NO. 3 (antisense AGGAGGTCAGCTGAGCAGCCA; unmodified DNA)
  reduction of levels of newly synthesized αhFR: ≤ 60%

Reference: patent publication US7030236B2, “Antisense oligonucleotides tarageting folate receptor alpha, and the use thereof” (priority 2001, dated 2006)
